# The list shows a part of the results.
# Target: T1, OsSMF1 (Oryza sativa, UniProt Q6ZLB0 1-436)
# T1 sequence: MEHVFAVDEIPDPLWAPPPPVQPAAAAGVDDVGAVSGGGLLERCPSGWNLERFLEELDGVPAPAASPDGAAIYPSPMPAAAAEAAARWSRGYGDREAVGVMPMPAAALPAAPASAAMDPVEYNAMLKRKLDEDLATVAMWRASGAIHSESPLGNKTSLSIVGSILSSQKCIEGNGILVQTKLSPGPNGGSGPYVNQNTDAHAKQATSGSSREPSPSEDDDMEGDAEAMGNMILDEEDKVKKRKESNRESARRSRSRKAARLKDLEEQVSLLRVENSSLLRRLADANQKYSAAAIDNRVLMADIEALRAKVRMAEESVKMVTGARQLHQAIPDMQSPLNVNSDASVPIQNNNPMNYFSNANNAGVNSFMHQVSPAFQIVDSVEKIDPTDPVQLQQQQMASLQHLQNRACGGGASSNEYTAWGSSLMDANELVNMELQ
# Assay: protein-binding microarray (RPBM); PBS, 2% BSA, 51.3 ng/ul salmon testes DNA, 50 uM zinc acetate, 200 nM TF, 25 C, 1 h; high values mean tight binding
# Conditions: protein: recombinant; tags: N-terminal polyhistidine and DsRed monomer fusion (pET32a); chain copies: 2; label: CyDye5-dUTP incorporated in the synthesized complementary strand; 3' TTTTT single-stranded linker to array surface; dsDNA, one strand shown
# Procedure, shortened: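 Transcription factors, each fused N-terminally to a polyhistidine tag and DsRed, were expressed in E. coli BL21-CodonPlus and purified on Ni–NTA. A custom Agilent array was made double-stranded by primer extension with Cy5-dUTP and blocked with 2% BSA. It was incubated with 200 nM protein in PBS, 2% BSA, salmon testes DNA and 50 µM zinc acetate at 25 °C for 1 h, then washed. The binding signal is per-feature fluorescence intensity (arbitrary units) read on an Axon 4000B scanner.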
row,Sequence,binding signal
1,CTGCTGCCTTCAGTGATTCAGCAGCATGATTTTGACAGTGCGGAGTCACCTAGTGCAG,3390 fluorescence intensity (a.u.)
2,AGAGTGAACTTATTCCAATTTAACACGTGTCTCCTTAGTACGGAGTCACCTAGTGCAG,7780 fluorescence intensity (a.u.)
3,GAGAGGTGTAACTAGTTAGATAGACCCCGTCACGCGCGCGCGGAGTCACCTAGTGCAG,5400 fluorescence intensity (a.u.)
4,CTGTTCCTCCGTACTCGTCGCCCGCCACCTCATCCCGCGGCGGAGTCACCTAGTGCAG,8610 fluorescence intensity (a.u.)
5,AAACGGAGTTGCTAGAAATATGGCGCCATATGCTACAGTCCGGAGTCACCTAGTGCAG,4920 fluorescence intensity (a.u.)
6,CTCCTGCTGACGCGCCCCGTCGCCGCCGCTCGCTTGCCGCCGGAGTCACCTAGTGCAG,9370 fluorescence intensity (a.u.)
7,GCTCTCCTCGTCAGCTTCAGGTGGTCGGGTGCTGCCTCCTCGGAGTCACCTAGTGCAG,6060 fluorescence intensity (a.u.)
8,CCACCTCTCTAGCTTATTTTATGAGAGAGTTCTACACAACCGGAGTCACCTAGTGCAG,21800 fluorescence intensity (a.u.)
9,ATGCTAACATGGCATACAAACCTTTCCGGGCTCCACATATCGGAGTCACCTAGTGCAG,3200 fluorescence intensity (a.u.)
10,TAACTTTGGAACAGGCTGATAAGGGTGGATCCTGCGGTTGCGGAGTCACCTAGTGCAG,3440 fluorescence intensity (a.u.)
11,TGCATTCATGGAGACCGGCGAACACGTCGTCGTGCTGTCGCGGAGTCACCTAGTGCAG,3570 fluorescence intensity (a.u.)
12,CAAACATCACTAGTTCTCCTCTATTTTGGTAATATTGACGCGGAGTCACCTAGTGCAG,3190 fluorescence intensity (a.u.)
13,CGATCTCCTCCGAAAATAACGCGAGACCATCCGATCACACCGGAGTCACCTAGTGCAG,23600 fluorescence intensity (a.u.)
14,TCCTCCTTCCTTCCACCTCACCCCAACCCCAACCCCAACCCGGAGTCACCTAGTGCAG,4080 fluorescence intensity (a.u.)
15,GGAAAAGCCACATAAGCAATTTCCTTTTCTTGGATCACTCCGGAGTCACCTAGTGCAG,5190 fluorescence intensity (a.u.)
16,ATGCAGTTTATTCTACTCGCTGGGTACACGTCAGTCAGTGCGGAGTCACCTAGTGCAG,19000 fluorescence intensity (a.u.)
17,TGCAATTGATTTCACAAACCATGGGAGATGGTGACGTGCACGGAGTCACCTAGTGCAG,9920 fluorescence intensity (a.u.)
18,GCCCCTGCTCCTACGCTGATGCAGTCAGTCATCACTGGTACGGAGTCACCTAGTGCAG,3390 fluorescence intensity (a.u.)
19,CAACCCTTCTTGCCTTAATCTACACTCTCATTATATTTAACGGAGTCACCTAGTGCAG,36600 fluorescence intensity (a.u.)
20,CATGGGAGATTCCAAGCGCCAGACTGACAGATTGACCTTGCGGAGTCACCTAGTGCAG,3230 fluorescence intensity (a.u.)
21,CGGTGTGCGCGTGGTGGTCTGATTCCGATCTGTACTATGTCGGAGTCACCTAGTGCAG,4240 fluorescence intensity (a.u.)

row,Sequence,binding signal
1,TCTCCTCTCACCTCGCAATCACATCCTCTTCCCTTCTCTTCGGAGTCACCTAGTGCAG,29200 fluorescence intensity (a.u.)
2,GTGATCAGTGTTGACCGTTGACTGACACAGAAACGACAACCGGAGTCACCTAGTGCAG,3500 fluorescence intensity (a.u.)
3,TGTCACGAAAATCTTAATATTCATTTGGAGAAAAGAACGGCGGAGTCACCTAGTGCAG,49000 fluorescence intensity (a.u.)
4,GTTTCATTTGTTGCCCCTCGAGTCATTATTTGGCGCGGGACGGAGTCACCTAGTGCAG,4030 fluorescence intensity (a.u.)
5,ATGATATTTTAAGGCAATTTCTATATAGAAAGTTTTCATACGGAGTCACCTAGTGCAG,6600 fluorescence intensity (a.u.)
6,ATATATATATATATATATATATATATATATACAGTTCACACGGAGTCACCTAGTGCAG,3240 fluorescence intensity (a.u.)
7,GATTTGCAGTTGCTTAAGTCGCCCAAGTCATCAATCTTCACGGAGTCACCTAGTGCAG,3850 fluorescence intensity (a.u.)
8,TCAAAGCGGCGTCACCGGTGAGGTCACGCGCCACCGGCGACGGAGTCACCTAGTGCAG,4200 fluorescence intensity (a.u.)
9,GCTCGCCGGCCTCACCCTCAATACATGGTGATTCATCCGGCGGAGTCACCTAGTGCAG,3660 fluorescence intensity (a.u.)
10,CGATTTGGGAGCAACGTTGACGATCCGACTACAACCTTACCGGAGTCACCTAGTGCAG,3810 fluorescence intensity (a.u.)
11,CAGTGGGGATGTCGATTTCATGGCTGACCTGTCAGGTTGCCGGAGTCACCTAGTGCAG,5280 fluorescence intensity (a.u.)
12,GCAGGGCCCCGTGATGCCGCTTCTTGATCCAGGAAAGCTGCGGAGTCACCTAGTGCAG,3160 fluorescence intensity (a.u.)
13,AACTCTCGGCCTTAGCTCCTACCGTCACTCCCACGTGTGCCGGAGTCACCTAGTGCAG,11800 fluorescence intensity (a.u.)
14,GTGGCCAACCGGGGAAAATCGCGAAAGTAGGTCCCTGTCGCGGAGTCACCTAGTGCAG,3530 fluorescence intensity (a.u.)
15,TTTCTGCGCTACGTGCTCGCCATGTCGTCCTCGTCACAAACGGAGTCACCTAGTGCAG,5120 fluorescence intensity (a.u.)
16,TCTCGAGCACAATAGTCCACTGTTTCAGCTTCGATGTCGTCGGAGTCACCTAGTGCAG,35000 fluorescence intensity (a.u.)
17,CCAGCATCCAAATCCAACTCACTCGAGCGCGAGCTAGCCCCGGAGTCACCTAGTGCAG,3180 fluorescence intensity (a.u.)
18,TAGACTAGTAGCTGGTGGGCCCCATGACACAGTCACTTGGCGGAGTCACCTAGTGCAG,4760 fluorescence intensity (a.u.)
19,ACCTCCTCCACCTCCATGGCTCACCACCACGTACAGCAAACGGAGTCACCTAGTGCAG,3360 fluorescence intensity (a.u.)
20,TTCCTCATTCTTTCCCTGCTGCAGTTCGGCCACGTCTACGCGGAGTCACCTAGTGCAG,5650 fluorescence intensity (a.u.)
21,TTGCCTGTTCAAATTTTCTTTGTTGTGTCAGACGTATGCTCGGAGTCACCTAGTGCAG,3180 fluorescence intensity (a.u.)

# Exported with tabs: part of the list above
row	Sequence	binding signal
4	GTTTCATTTGTTGCCCCTCGAGTCATTATTTGGCGCGGGACGGAGTCACCTAGTGCAG	4030 fluorescence intensity (a.u.)
5	ATGATATTTTAAGGCAATTTCTATATAGAAAGTTTTCATACGGAGTCACCTAGTGCAG	6600 fluorescence intensity (a.u.)
